± gives the standard deviation of the averaged measurements. Only a part is listed here, and it is no random draw.
Compound: Nc1ncnc2c1ncn2[C@@H]1O[C@H](COP(=O)(O)OP(=O)(O)NP(=O)(O)O)[C@@H](O)[C@H]1O [adenylyl imidodiphosphate]
Assay: NP40-soluble protein abundance relative to vehicle (solubility fold change) (ratio); higher = more soluble protein in presence of AMP-PNP
Outline: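 Across three independent experiments, values are fold changes against the detergent-processed vehicle for each replicate, based on vsn-normalised intensities. The samples were Jurkat crude lysate treated with eight concentrations (0.1 to 10 mM) for 10 min at room temperature and then 3 min at 37 °C. Lysate was solubilised with 0.8% NP40 and benzonase, ultracentrifuged, and the supernatant analysed by TMT-labelled LC-MS/MS.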

Protein sequences, listed by entry. Tags and fused reporters are not part of them. Lines headed by an entry give the natural chain unless they say otherwise; changes in a name come on top.
UniProt Q8TDN6: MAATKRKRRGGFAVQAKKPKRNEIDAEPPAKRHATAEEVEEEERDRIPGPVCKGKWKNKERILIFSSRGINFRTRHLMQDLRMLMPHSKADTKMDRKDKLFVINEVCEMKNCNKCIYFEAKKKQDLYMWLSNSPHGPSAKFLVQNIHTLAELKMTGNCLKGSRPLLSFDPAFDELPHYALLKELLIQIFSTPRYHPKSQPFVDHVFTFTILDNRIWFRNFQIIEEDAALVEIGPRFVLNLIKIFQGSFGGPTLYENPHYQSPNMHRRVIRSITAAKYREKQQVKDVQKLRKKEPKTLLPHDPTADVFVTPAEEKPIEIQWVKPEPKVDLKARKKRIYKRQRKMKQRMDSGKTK
UniProt Q8TDH9: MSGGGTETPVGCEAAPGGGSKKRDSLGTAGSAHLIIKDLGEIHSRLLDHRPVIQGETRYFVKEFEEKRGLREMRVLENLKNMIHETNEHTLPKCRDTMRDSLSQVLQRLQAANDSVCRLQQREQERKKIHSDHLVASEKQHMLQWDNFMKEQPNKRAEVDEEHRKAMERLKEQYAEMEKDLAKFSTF
UniProt Q92696: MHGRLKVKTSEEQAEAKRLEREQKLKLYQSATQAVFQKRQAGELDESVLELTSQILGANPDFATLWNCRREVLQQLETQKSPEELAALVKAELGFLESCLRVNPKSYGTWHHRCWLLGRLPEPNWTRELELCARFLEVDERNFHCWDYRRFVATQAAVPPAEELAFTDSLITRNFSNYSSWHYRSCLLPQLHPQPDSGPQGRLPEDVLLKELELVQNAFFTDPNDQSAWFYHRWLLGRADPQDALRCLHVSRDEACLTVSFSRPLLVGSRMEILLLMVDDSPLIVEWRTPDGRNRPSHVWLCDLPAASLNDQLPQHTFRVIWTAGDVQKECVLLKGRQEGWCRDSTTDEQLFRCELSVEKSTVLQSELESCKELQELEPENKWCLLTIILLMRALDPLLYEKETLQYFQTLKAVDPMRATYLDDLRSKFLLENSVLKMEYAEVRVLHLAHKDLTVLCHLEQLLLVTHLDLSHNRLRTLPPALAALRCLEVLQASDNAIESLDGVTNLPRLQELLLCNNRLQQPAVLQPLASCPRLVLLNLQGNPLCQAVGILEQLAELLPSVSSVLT
UniProt Q8WXI9: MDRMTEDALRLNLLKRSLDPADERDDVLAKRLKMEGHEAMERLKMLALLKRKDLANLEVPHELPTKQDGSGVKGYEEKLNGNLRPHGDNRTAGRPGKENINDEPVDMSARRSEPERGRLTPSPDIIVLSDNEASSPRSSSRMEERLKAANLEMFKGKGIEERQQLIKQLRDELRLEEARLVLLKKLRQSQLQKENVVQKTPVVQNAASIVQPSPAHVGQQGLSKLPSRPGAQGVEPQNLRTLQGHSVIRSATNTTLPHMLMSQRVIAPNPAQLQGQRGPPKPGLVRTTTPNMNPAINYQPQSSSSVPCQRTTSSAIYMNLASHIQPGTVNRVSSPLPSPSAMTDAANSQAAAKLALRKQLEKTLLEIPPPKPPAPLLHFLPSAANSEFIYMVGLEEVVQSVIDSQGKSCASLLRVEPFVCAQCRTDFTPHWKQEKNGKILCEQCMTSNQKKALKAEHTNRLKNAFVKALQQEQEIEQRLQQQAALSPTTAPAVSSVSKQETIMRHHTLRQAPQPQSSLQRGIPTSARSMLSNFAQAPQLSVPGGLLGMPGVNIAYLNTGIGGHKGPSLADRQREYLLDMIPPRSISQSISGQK
UniProt Q8NHM5: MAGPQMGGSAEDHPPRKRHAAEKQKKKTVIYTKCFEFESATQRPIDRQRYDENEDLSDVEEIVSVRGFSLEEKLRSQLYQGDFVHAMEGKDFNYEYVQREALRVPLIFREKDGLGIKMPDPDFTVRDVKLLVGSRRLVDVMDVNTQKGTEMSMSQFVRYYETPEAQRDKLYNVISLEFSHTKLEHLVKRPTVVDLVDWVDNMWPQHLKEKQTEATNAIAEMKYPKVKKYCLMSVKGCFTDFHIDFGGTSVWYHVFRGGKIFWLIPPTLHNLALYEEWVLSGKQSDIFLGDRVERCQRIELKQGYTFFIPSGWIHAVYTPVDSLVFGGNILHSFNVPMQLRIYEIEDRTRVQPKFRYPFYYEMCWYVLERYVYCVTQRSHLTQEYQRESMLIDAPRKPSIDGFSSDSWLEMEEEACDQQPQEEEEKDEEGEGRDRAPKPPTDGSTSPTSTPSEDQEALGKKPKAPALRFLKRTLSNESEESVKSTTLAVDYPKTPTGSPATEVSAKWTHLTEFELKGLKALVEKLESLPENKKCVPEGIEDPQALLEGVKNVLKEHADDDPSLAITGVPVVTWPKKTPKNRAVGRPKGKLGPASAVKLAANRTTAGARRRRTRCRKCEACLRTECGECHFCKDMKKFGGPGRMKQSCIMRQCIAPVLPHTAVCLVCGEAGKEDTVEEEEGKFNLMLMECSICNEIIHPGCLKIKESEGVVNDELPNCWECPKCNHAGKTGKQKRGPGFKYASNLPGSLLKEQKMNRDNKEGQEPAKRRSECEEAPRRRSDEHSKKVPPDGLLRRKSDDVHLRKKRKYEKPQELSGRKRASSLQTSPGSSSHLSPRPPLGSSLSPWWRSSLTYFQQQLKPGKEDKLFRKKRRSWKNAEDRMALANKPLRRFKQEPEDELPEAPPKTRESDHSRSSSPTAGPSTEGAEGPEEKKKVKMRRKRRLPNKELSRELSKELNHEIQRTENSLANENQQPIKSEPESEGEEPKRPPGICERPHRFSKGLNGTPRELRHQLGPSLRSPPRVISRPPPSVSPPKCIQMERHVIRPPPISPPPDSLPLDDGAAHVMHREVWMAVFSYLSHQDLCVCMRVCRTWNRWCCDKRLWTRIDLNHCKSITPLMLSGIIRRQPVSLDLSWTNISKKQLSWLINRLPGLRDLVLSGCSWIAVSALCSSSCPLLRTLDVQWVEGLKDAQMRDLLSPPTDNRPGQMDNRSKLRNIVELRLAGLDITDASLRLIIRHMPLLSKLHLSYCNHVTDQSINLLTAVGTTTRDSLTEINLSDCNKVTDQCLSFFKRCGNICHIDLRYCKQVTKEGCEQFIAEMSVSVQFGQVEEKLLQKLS
UniProt Q8TEA7: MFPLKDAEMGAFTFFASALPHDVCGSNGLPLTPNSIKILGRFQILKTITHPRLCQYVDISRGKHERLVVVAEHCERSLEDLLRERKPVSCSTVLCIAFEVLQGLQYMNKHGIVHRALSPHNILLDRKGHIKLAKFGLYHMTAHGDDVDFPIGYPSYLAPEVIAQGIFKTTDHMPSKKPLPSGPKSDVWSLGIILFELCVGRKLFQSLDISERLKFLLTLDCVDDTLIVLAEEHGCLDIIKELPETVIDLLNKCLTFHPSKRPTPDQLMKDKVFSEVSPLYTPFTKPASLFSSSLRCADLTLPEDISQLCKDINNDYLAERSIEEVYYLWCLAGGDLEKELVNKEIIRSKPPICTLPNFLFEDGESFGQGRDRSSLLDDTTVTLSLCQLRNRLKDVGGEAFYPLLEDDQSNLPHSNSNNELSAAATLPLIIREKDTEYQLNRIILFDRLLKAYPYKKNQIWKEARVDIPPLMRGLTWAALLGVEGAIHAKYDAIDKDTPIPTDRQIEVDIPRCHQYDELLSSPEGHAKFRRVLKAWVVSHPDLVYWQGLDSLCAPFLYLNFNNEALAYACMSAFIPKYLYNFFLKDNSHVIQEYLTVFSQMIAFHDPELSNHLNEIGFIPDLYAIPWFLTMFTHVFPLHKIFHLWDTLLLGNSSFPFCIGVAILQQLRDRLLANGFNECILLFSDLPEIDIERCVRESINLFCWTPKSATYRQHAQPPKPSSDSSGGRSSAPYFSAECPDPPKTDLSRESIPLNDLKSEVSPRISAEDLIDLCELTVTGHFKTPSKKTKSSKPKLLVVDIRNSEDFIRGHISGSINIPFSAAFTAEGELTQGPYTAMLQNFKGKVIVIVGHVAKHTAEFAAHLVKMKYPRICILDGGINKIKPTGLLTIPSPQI
UniProt Q8WW59: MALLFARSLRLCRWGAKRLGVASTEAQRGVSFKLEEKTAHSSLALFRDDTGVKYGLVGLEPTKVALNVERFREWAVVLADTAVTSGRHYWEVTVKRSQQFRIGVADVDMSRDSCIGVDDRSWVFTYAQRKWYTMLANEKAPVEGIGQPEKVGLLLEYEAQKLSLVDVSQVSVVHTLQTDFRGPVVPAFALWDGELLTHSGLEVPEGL
UniProt Q92828: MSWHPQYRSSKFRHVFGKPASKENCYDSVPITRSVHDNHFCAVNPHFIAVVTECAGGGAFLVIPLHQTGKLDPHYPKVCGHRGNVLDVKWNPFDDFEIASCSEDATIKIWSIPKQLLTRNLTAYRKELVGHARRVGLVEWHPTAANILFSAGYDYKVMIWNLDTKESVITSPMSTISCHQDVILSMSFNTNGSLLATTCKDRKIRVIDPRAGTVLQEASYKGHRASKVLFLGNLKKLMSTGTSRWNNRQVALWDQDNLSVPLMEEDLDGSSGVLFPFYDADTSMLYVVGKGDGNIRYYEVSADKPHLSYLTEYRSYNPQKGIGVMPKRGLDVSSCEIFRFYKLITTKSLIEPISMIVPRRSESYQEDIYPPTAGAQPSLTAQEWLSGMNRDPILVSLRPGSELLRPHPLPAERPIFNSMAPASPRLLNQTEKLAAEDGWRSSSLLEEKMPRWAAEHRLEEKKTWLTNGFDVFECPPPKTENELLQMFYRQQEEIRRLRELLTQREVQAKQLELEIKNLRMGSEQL
UniProt Q92783: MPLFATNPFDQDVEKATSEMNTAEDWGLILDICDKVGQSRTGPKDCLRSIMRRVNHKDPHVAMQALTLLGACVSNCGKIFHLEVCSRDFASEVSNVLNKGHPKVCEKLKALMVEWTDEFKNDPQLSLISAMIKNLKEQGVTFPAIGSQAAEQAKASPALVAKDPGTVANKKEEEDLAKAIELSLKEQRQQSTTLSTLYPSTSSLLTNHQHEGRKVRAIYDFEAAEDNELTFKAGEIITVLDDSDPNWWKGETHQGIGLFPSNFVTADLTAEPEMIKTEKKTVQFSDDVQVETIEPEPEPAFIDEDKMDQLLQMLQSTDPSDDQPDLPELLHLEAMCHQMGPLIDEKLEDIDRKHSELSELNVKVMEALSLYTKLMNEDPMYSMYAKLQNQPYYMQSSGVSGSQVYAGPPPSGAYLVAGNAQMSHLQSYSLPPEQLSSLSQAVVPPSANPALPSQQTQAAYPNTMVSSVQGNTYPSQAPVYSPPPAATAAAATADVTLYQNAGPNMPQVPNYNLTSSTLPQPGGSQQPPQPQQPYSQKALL
UniProt Q8WUK0: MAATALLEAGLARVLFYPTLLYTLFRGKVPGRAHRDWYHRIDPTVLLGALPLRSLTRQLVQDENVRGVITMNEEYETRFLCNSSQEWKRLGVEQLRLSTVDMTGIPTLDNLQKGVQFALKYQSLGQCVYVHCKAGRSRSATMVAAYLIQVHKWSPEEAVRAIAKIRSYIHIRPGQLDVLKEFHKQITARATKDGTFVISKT
UniProt Q8NDX1: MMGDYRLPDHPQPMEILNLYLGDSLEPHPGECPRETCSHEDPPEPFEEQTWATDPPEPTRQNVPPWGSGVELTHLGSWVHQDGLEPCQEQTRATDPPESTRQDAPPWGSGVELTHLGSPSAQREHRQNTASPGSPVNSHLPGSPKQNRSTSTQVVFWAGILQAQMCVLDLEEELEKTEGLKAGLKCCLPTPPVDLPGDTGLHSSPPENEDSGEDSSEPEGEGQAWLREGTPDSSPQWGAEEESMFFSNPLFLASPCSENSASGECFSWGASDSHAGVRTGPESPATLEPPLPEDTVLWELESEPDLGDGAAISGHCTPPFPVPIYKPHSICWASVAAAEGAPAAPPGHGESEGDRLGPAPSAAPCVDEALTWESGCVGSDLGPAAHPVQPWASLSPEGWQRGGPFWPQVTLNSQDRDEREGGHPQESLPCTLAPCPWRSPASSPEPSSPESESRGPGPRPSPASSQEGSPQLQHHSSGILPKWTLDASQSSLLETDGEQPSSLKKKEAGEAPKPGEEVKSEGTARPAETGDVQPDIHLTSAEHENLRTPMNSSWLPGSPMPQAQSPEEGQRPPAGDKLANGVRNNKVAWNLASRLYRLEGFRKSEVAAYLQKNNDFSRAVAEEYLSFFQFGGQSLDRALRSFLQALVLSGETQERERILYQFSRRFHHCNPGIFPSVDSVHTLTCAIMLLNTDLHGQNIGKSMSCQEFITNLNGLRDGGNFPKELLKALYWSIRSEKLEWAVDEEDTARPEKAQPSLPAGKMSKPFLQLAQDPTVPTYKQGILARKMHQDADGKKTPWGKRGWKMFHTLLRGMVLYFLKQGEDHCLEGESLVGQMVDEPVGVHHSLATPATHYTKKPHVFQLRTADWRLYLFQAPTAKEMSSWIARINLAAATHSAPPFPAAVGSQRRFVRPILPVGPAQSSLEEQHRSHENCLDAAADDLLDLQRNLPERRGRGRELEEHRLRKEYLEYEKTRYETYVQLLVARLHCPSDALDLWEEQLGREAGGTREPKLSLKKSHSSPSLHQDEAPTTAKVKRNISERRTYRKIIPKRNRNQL

Target	NP40-soluble protein abundance (concentration: 1mM)	NP40-soluble protein abundance (concentration: 2mM)	NP40-soluble protein abundance (concentration: 4mM)	NP40-soluble protein abundance (concentration: 6mM)	NP40-soluble protein abundance (concentration: 8mM)	NP40-soluble protein abundance (concentration: 10mM)
UniProt Q92698 and related entries	0.976 ± 0.048	0.995 ± 0.031	0.983 ± 0.054	0.992 ± 0.053	0.977 ± 0.044	0.988 ± 0.024
UniProt Q92609 and related entries	1.022 ± 0.01	1.06 ± 0.025	1.016 ± 0.01	0.972 ± 0.055	0.945 ± 0.03	0.976 ± 0.043
UniProt Q8WY54 and related entries	1 ± 0.04	1.01 ± 0.014	1.03 ± 0.042	1.02 ± 0.059	1.01 ± 0.045	1.03 ± 0.056
UniProt Q8TDN6	1.045 ± 0.0023	1.044 ± 0.0043	1.1 ± 0.019	1.11 ± 0.026	1.16 ± 0.021	1.23 ± 0.049
DNAJC9 (UniProt Q8WXX5)	1.09 ± 0.043	1.14 ± 0.038	1.24 ± 0.032	1.24 ± 0.099	1.31 ± 0.11	1.29 ± 0.072
UniProt Q8TAP9	1.01 ± 0.032	1.03 ± 0.032	0.999 ± 0.028	0.997 ± 0.037	0.958 ± 0.046	1.01 ± 0.04
UniProt Q8TDH9	1 ± 0.044	1.01 ± 0.049	0.97 ± 0.037	0.951 ± 0.029	0.948 ± 0.036	0.921 ± 0.038
RABGGTA (UniProt Q92696)	0.953 ± 0.027	0.874 ± 0.11	0.9467 ± 0.0094	0.929 ± 0.022	0.967 ± 0.031	0.88 ± 0.027
KIF18A (UniProt Q8NI77)	1.02 ± 0.06	1.03 ± 0.084	1.03 ± 0.061	1.04 ± 0.013	1.02 ± 0.024	1.05 ± 0.019
GATAD2B (UniProt Q8WXI9)	1.01 ± 0.014	1.06 ± 0.046	1.024 ± 0.0076	1.01 ± 0.049	0.994 ± 0.035	1.02 ± 0.03
UniProt Q8NHM5 and related entries	1.02 ± 0.024	1.034 ± 0.0075	1.04 ± 0.054	1.04 ± 0.04	1.01 ± 0.021	1.04 ± 0.034
UniProt Q8NFH5 and related entries	1.05 ± 0.026	1.06 ± 0.058	1.08 ± 0.053	1.09 ± 0.035	1.1 ± 0.054	1.14 ± 0.1
GALNT6 (UniProt Q8NCL4)	1.005 ± 0.0084	0.9987 ± 0.0047	0.967 ± 0.011	1 ± 0.024	0.9866 ± 0.0025	1 ± 0.015
TGFBRAP1 (UniProt Q8WUH2)	0.96 ± 0.042	0.89 ± 0.093	0.93 ± 0.048	0.895 ± 0.064	0.916 ± 0.047	0.889 ± 0.052
UniProt Q8TDZ2 and related entries	0.991 ± 0.023	1 ± 0.012	0.995 ± 0.01	0.979 ± 0.022	0.973 ± 0.024	0.982 ± 0.017
UniProt Q8TEB1 and related entries	1.01 ± 0.03	0.98 ± 0.06	0.976 ± 0.034	0.967 ± 0.024	0.961 ± 0.04	0.963 ± 0.076
UniProt Q8TEA7 and related entries	0.948 ± 0.089	0.94 ± 0.08	0.959 ± 0.029	0.939 ± 0.05	0.956 ± 0.041	0.94 ± 0.06
UniProt Q8TBE0 and related entries	1.04 ± 0.063	1.03 ± 0.09	1.07 ± 0.037	1.05 ± 0.05	1.02 ± 0.031	1.02 ± 0.04
SPRYD4 (UniProt Q8WW59)	0.979 ± 0.025	0.957 ± 0.033	0.978 ± 0.027	0.986 ± 0.027	1.03 ± 0.029	0.986 ± 0.051
CORO2A (UniProt Q92828)	0.985 ± 0.029	0.959 ± 0.055	1.02 ± 0.021	1.02 ± 0.025	1.01 ± 0.019	1.02 ± 0.085
UniProt Q92614 and related entries	1.02 ± 0.025	1.05 ± 0.026	1.01 ± 0.014	0.984 ± 0.045	0.955 ± 0.026	0.971 ± 0.042
UniProt Q92783 and related entries	1.042 ± 0.0058	1.02 ± 0.03	0.965 ± 0.04	0.99 ± 0.03	0.952 ± 0.024	0.979 ± 0.04
UniProt Q8WUK0 and related entries	0.953 ± 0.042	0.923 ± 0.019	0.9206 ± 0.0015	0.929 ± 0.023	0.9529 ± 0.0077	0.924 ± 0.018
TDRD7 (UniProt Q8NHU6)	1.008 ± 0.0095	1.01 ± 0.022	0.995 ± 0.014	0.9752 ± 0.0069	0.96444 ± 0.0008	0.994 ± 0.042
PDCD6IP (UniProt Q8WUM4)	1.01 ± 0.028	1.02 ± 0.03	0.9732 ± 0.0074	1.02 ± 0.014	0.991 ± 0.021	0.988 ± 0.014
UniProt Q8NDX1 and related entries	0.983 ± 0.03	1.04 ± 0.056	0.998 ± 0.032	1 ± 0.028	0.985 ± 0.056	1.03 ± 0.067
KBTBD8 (UniProt Q8NFY9)	0.953 ± 0.046	0.944 ± 0.043	0.955 ± 0.035	0.976 ± 0.018	0.973 ± 0.02	0.965 ± 0.025
UniProt Q8TEP8-3	0.968 ± 0.014	0.983 ± 0.045	0.974 ± 0.027	0.973 ± 0.016	0.961 ± 0.02	0.944 ± 0.022
UniProt Q8TC07-2	0.994 ± 0.019	0.939 ± 0.059	0.976 ± 0.024	0.913 ± 0.021	0.934 ± 0.0098	0.905 ± 0.042
UniProt Q8NFG4 and related entries	1.03 ± 0.021	1.02 ± 0.024	1.001 ± 0.0095	1 ± 0.023	1.01 ± 0.03	1.02 ± 0.043

A few values from the results shown:
In NP40-soluble protein abundance (concentration: 2mM), UniProt Q8TAP9 has the entry 1.03 ± 0.032
In NP40-soluble protein abundance (concentration: 4mM), UniProt Q8NFG4 and related entries has the entry 1.001 ± 0.0095

From the supplement of paper PMC6411743
